Measured values: paper PMC10617580
No constants are given. Whether binding was seen depends on the method and setting. Binding seen in cells or lysates may run through a third protein. A yes stands for co-enrichment or nearness to the bait. Other partners may have been found.

Target: UL8-V5-TbID (pcDNA3.1-UL8-V5-TbID) (human cytomegalovirus, strain TB40/E)
Assay: proximity labelling; BioID-MS with TurboID: HEK293 transfected with UL8-V5-TbID (control UL8-V5) for 48 hours, 50 µM biotin for 6 hours, streptavidin magnetic beads, mass spectrometry, SAINT filtering

B1: phospholipase C beta 3 (PLCB3), endogenous in HEK293 (protein, UniProt Q01970 1-1234)
chain: MAGAQPGVHALQLEPPTVVETLRRGSKFIKWDEETSSRNLVTLRVDPNGFFLYWTGPNMEVDTLDISSIRDTRTGRYARLPKDPKIREVLGFGGPDARLEEKLMTVVSGPDPVNTVFLNFMAVQDDTAKVWSEELFKLAMNILAQNASRNTFLRKAYTKLKLQVNQDGRIPVKNILKMFSADKKRVETALESCGLKFNRSESIRPDEFSLEIFERFLNKLCLRPDIDKILLEIGAKGKPYLTLEQLMDFINQKQRDPRLNEVLYPPLRPSQARLLIEKYEPNQQFLERDQMSMEGFSRYLGGEENGILPLEALDLSTDMTQPLSAYFINSSHNTYLTAGQLAGTSSVEMYRQALLWGCRCVELDVWKGRPPEEEPFITHGFTMTTEVPLRDVLEAIAETAFKTSPYPVILSFENHVDSAKQQAKMAEYCRSIFGDALLIEPLDKYPLAPGVPLPSPQDLMGRILVKNKKRHRPSAGGPDSAGRKRPLEQSNSALSESSAATEPSSPQLGSPSSDSCPGLSNGEEVGLEKPSLEPQKSLGDEGLNRGPYVLGPADREDEEEDEEEEEQTDPKKPTTDEGTASSEVNATEEMSTLVNYIEPVKFKSFEAARKRNKCFEMSSFVETKAMEQLTKSPMEFVEYNKQQLSRIYPKGTRVDSSNYMPQLFWNVGCQLVALNFQTLDVAMQLNAGVFEYNGRSGYLLKPEFMRRPDKSFDPFTEVIVDGIVANALRVKVISGQFLSDRKVGIYVEVDMFGLPVDTRRKYRTRTSQGNSFNPVWDEEPFDFPKVVLPTLASLRIAAFEEGGKFVGHRILPVSAIRSGYHYVCLRNEANQPLCLPALLIYTEASDYIPDDHQDYAEALINPIKHVSLMDQRARQLAALIGESEAQAGQETCQDTQSQQLGSQPSSNPTPSPLDASPRRPPGPTTSPASTSLSSPGQRDDLIASILSEVAPTPLDELRGHKALVKLRSRQERDLRELRKKHQRKAVTLTRRLLDGLAQAQAEGRCRLRPGALGGAADVEDTKEGEDEAKRYQEFQNRQVQSLLELREAQVDAEAQRRLEHLRQALQRLREVVLDANTTQFKRLKEMNEREKKELQKILDRKRHNSISEAKMRDKHKKEAELTEINRRHITESVNSIRRLEEAQKQRHDRLVAGQQQVLQQLAEEEPKLLAQLAQECQEQRARLPQEIRRSLLGEMPEGLGDGPLVACASNGHAPGSSGHLSGADSESQEENTQL
- binding: binds
